Data as given in PubChem BioAssay AID504804 (Drosophila RNAi Screening Center, 2011).

Assay: 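dsRNAs that improve Kc cell survival under doxorubicin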 (primary screen)
System: Drosophila Kc cells
Reagent: long dsRNA against Drosophila genes, 0.5 µg dsRNA per well
Timing: 96 h (48 h knock-down, then 48 h drug)
Challenge: doxorubicin 5 µg/ml for 48 h, added 48 h after dsRNA
Measured: 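Viability measured as cellular ATP by luminescence after 48 h knock-down then 48 h doxorubicin at 5 µg/ml; unnormalised plate counts for each replicate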
Direction: raw ATP luminescence: higher = more viable cells, protection from doxorubicin
Call rule: 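z-score of 2 or more over plate mean in both duplicates, retained only when retests and separate dsRNAs confirm the protection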
The deposit covers about 19,000 reagents; this is an unselected part of those with a known target gene and a result. Of all reagents, 47 (0.25%) were called active. 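Signals are raw, not normalised; exact z-scores behind calls not deposited; actives needed confirmation, so some wells reaching 2 SD are inactive.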 A number with no mark means an inactive call. The numbers tell different reagents against one gene apart. Names joined by + are all predicted targets of the reagent. Reagent sequences are not shown.

target,reagent no.,"raw ATP luminescence, replicate 1","raw ATP luminescence, replicate 2"
CG3176 + CR18166 + CG32817,1,1.83e5,1.94e5
CG3176 + CR18166 + CG32817,2,1.74e5,1.91e5
Mgat4a,1,83037,73093
Mgat4a,2,90857,64100
Cap-D3 + tomb,1,23213,25263
CG17140 + CG17139,1,37447,46547
CG17140 + CG17139,2,45533,62783
CG30281,1,78680,78367
CG10909,1,48673,41703
CG2336,1,67637,67317
CG3251,1,25290,21890
CG34292,1,2.25e5,2.23e5
CaBP1,1,89600,65603
Pect,1,97717,77297
Pect,2,44120,51847
hog,1,1.92e5,1.84e5
Ggamma30A,1,43630,82870
Ggamma30A,2,47353,75373
Polr3A,1,3.70e5,3.35e5
CG17190,1,40020,30800
BEAF-32,1,51787,49893
CG15425,1,32527,23097
CG3534,1,66840,53250
Papst2,1,23540,24617
ppk31,1,1.91e5,1.80e5
CG6983,1,42357,31880
crn,1,42610,34950
crn,2,41000,34590
Snx27,1,32210,47750
Snx27,2,40720,41570
Snx27,3,37170,48440
Ccp84Ad,1,63820,53863
Pcl,1,66807,57350
Mat89Ba,1,37253,39160
